Test results: patent US20220332835A1 (SHANGHAITECH UNIVERSITY, published 2022)
Where a chain is given by its changes, count along the chain named. These are yes or no findings as the source states them, for the method shown. Some binding calls cover weakened binding; strength is not graded here. Blank lines part the entries; values can stand above or below the binder they belong to.

Tests used:
Experiment in all cases: ELISA with truncated synthetic peptides of the CXCR2 N-terminus, single condition
pepN1-28 = target: pepN1-28
pepN1-19 = target: T1, pepN1-19
T1 sequence (peptide): MEDFNMESDSFEDFWKGED

pepN7-19 = target: T2, pepN7-19
T2 sequence (peptide): ESDSFEDFWKGED

pepN1-35 = target: pepN1-35

binding (pepN1-28): binds
binding (pepN1-19): binds
binding (pepN7-19): binds
binding (pepN1-35): binds
B1: abN48-IgG1 (antibody, V domains shown)
VH: QVQLVQSGAEVKKPGSSVKVSCKASGGTLSSYAISWVRQAPGQGPEWMGWINPNSGGTNYAQKFQGRVTMTRDTSISTAYMELSRLRPDDTAVYYCASGYCSSTSCYDYWGQGTLVTVSS
VL: QAVLTQPSSLSASPGASVSLTCTLRSGINVGAYRIYWYQQKPGSPPQFLLRYKSDSDKQQGSGVPSRFSGSRDASANAGILLISGLRSEDEADYYCAIWHSSAWVFGGGTQLTVLG
notes: also called full-length abN48

binding (pepN1-28): binds
binding (pepN1-19): binds
binding (pepN7-19): binds
binding (pepN1-35): binds
B2: abN48-2-IgG1 (antibody, V domains shown)
VH: B1 VH with S103R, S105R
VL: B1 VL
notes: Full-length human IgG1, lambda light chain; also called ab48-2-IgG1; abN48-2-IgG2 (as misprinted)
